Reference: patent US9623049B2, “Immunotherapy using redirected allogeneic cells” (YEDA RESEARCH AND DEVELOPMENT CO. LTD., priority 2010, dated 2017)

Assay: In vivo bioluminescence imaging (IVIS) of luciferase+ T-bodies in Renca-Her2/neu-bearing mice
Design: species or system Balb/c mice
Conditions: 400 rads, FTY720 0.3 mg/kg ip

CCCCCCCCc1ccc(CCC(N)(CO)CO)cc1.Cl [FTY720, 2-amino-2-[2-(4-octylphenyl)ethyl]propane-1,3-diol]
effect of FTY720 on BLI signal of allogeneic T-bodies (30x10^6 allogeneic T-bodies): higher, especially from the lymphatic organs, and persisted for a longer time
effect of FTY720 on migration or persistence of syngeneic T-bodies (30x10^6 syngeneic T-bodies): did not seem to significantly alter the migration or the persistence
